Data as given in PubChem BioAssay AID1259424 (University of Nebraska Medical Center, 2018)
Test: 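Find knockdowns that reproduce the expression shifts seen after KSR1 loss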 (primary screen). System: human HCT116 colon cancer cells. Reagent: siRNA pool against human genes, 50 nM. Measured: 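Six signature mRNAs by branched-DNA multiplex assay, scaled to two housekeeping genes and non-targeting median, log2; matched to mean KSR1 knockdown profile by Pearson correlation and euclidean distance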. Reading the numbers: mean correlation with KSR1 profile: higher = expression change more like KSR1 knockdown.
The deposit covers about 14,000 reagents; shown is a part drawn at random. 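Higher correlation or smaller distance means closer resemblance to KSR1 loss; control wells, including KSR1 knockdowns, recur on many plates.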 Not all columns of the deposit are shown. Not given: the time to read-out.

The opening 4 entries, ahead of the listing:
Target gene | mean correlation with KSR1 profile
ZSCAN32 | -0.737
ZRSR2P1 | -0.0648
MAP4K5 | -0.205
ABR | -0.266

The list itself, from the start:
Target gene | mean correlation with KSR1 profile
ZSCAN32 | -0.737
ZRSR2P1 | -0.0648
MAP4K5 | -0.205
ABR | -0.266
ARMCX2 | 0.444
TLNRD1 | -0.299
BTG3 | -0.305
CCDC68 | -0.81
ZNF580 | -0.0679
PTPA | -0.623
COQ4 | -0.322
BAP1 | -0.8
TNFSF9 | 0.403
PECAM1 | 0.576
DSTYK | 0.396
RHOV | -0.341
VAMP3 | 0.0349
TNNT1 | -0.682
TULP3 | -0.413
IQSEC1 | 0.173
PRAF2 | 0.351
SASH1 | -0.143
CD83 | -0.0391
GOT2 | -0.121
ADAMTS8 | -0.225
MARCKS | -0.361
MINPP1 | -0.207
CNNM1 | -0.418
MAD2L1BP | -0.0825
SPHK2 | 0.302
HLA-DOB | -0.425
PLEKHB1 | -0.621
GBP1 | 0.439
ZNF586 | 0.0615
